## Screening data, single-dose tests

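Assay of Toxoplasma gondii numbers, read through their beta-galactosidase reporter with a colour substrate. Compounds at 50 µM. Higher reads as fewer parasites (inferred from which compounds were picked for retests). Of about 18,000 compounds tested this way, about 170 (0.94%) reached 50% or more in at least one test.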

Results are given as percent effect. How 0% and 100% were set is not recorded. Most values in the screen are low, and negative values occur. Compounds were drawn at random from those tested, without regard to their results.

Ic1cccnc1NCCOCC1CCCO1 (stereo not given) read -4.731%.
COC(=O)CNc1ccc2ccn(C)c(=O)c2c1 read -16.28%.
CC(C)COc1cncc(NC2CCS(=O)(=O)C2)n1 (stereo not given) read -3.211%.
CN1C(=O)c2cccn2CC1CN (stereo not given) read 6.925%.
CC(=O)NCc1ccc(-c2csc(C3CCCO3)n2)o1 (stereo not given) read 2.972%.
CCOCCCN(C(=O)COC)c1ncccc1Br read 3.696%.
COCc1csc(CN)c1 read -10.71%.
COCc1noc([C@@H]2CN(C3CCC3)C[C@H]2CO)n1 read 5.357%.
C1CN[C@@H]2CNC[C@@H]2C1 read 44.74%.
Cc1nn(CCO)c(C)c1CNCC1(O)CCCCC1 read -7.519%.
O=C(NCC1(O)CCOC1)c1ccn(C2CCCC2)n1 (stereo not given) read -2.994%.
Nc1ncn(Cc2cccc(Cl)c2)n1 read 0.6017%.
Cc1ccc(C(=O)N(C)CC2(C)CCOCC2)cn1 read 5.08%.
CCC(OC)C(=O)NCCCn1ccnc1C(C)C (stereo not given) read -4.731%.
CN(C)[C@@H]1CN(C(=O)c2ccccc2)C[C@H]1CO read 10.94%.
Cc1cc2cccc(C(=O)NCCOCCO)c2o1 read 17.39%.
COCCOc1ccc(NC(=O)c2ccoc2)cn1 read -8.254%.
O=C(CN1CCn2ccnc2C1)NC1CCS(=O)(=O)C1 (stereo not given) read 6.953%.
Cn1cc(Br)c(=O)c(NC(=O)Cc2ccc(O)cc2)c1 read -5.873%.
Cc1ccccc1C(=O)OCc1nc(N)nc(N)n1 read -5.061%.
O=C1CCc2cc(NC3CCS(=O)(=O)CC3)ccc2N1 read 36.65%.
CCOC(=O)N1CCN(C(=O)c2ccccc2O)CC1 read 0.4631%.
CNC(=O)CCc1cnn(-c2ccccc2)c1 read -3.706%.
Cc1cc(CNc2ncnc3c2cnn3C)on1 read -29.33%.
COC[C@@H]1CCCN1C(=O)Nc1cnns1 read 11.06%.
CC(C(=O)Nc1cnc2ccccc2c1)S(C)(=O)=O (stereo not given) read -27.35%.
Cn1cc(Br)cc1C(=O)NCC1CC(=O)N(C2CC2)C1 (stereo not given) read 0.9564%.
NC(=O)COc1ccc(Br)cc1CNCC1CCCO1 (stereo not given) read -4.493%.
CCCN1CCC(O)CC1 read -4.766%.
CC(C)N(CC(N)=O)C(=O)COc1ccc(F)cc1Br read -4.214%.
CCN1CCN(CC(=O)NC(C)Cn2cncn2)CC1 (stereo not given) read -0.7898%.
NC(=O)c1cncnc1N read -2.247%.
O=C(CCN1CCCCCC1=O)NCc1ncc[nH]1 read -13.78%.
O=C(NCC1CCS(=O)(=O)C1)c1cccc2cn[nH]c12 (stereo not given) read -3.441%.
COc1cc(CN(C)C)ccc1O read -10.5%.
O=C1c2ccc(F)cc2C(=O)N1Cc1ccno1 read 5.807%.
CNC(=O)CCN(C)Cc1cc2n(n1)CCNC2 read -1.35%.
CCC(CO)CC(F)(F)F (stereo not given) read -18.2%.
O=C(NCC(F)(F)F)c1ccc(Cn2cccn2)cc1 read -6.691%.
CC(CO)(CO)NCc1cc(C(F)(F)F)ccc1Cl read -5.796%.
Cc1noc(COc2cccc(C#N)c2)n1 read -15.71%.
CCOc1ccccc1NC(=O)N1CCN(C)CC1 read -6.126%.
CN(C)S(=O)(=O)N1CCCC1c1ccccc1Br (stereo not given) read -0.5312%.
CCCN(CC(N)=O)S(=O)(=O)c1ccc(C)cc1 read -2.438%.
CCNCc1cc(Cl)c(OCC(N)=O)c(OC)c1 read 1.432%.
Cc1cc(C)n(CC(=O)NCC2(C)CCOCC2)n1 read -5.68%.
CN(C)c1ccc(NC(=O)CCc2cccnc2)cn1 read -6.854%.
COc1cccc(CCNC(=O)C(C)O)c1OC (stereo not given) read -6.794%.
CC(C)C(NC(=O)c1ccon1)c1nccn1C (stereo not given) read 15.51%.
CC(C)(C)OC(=O)NCCC(=O)NCc1cccnc1 read 6.347%.
O=C1OCCN1CCn1nnc(-c2ccc(F)cc2)n1 read 6.251%.
O=C1CN(CCOc2ccc3ccccc3c2)CCN1 read -0.6073%.
CCOc1ccc(C(=O)NC2(C)CCS(=O)(=O)C2)cn1 (stereo not given) read 10.65%.
CN(C)S(=O)(=O)NC(c1ccccc1)c1ccccc1 read 10.19%.
COC(=O)Cc1sc(N)nc1C read -8.112%.
CCCC(=O)NCCN=c1ncnc2n(C)[nH]c(Br)c1-2 read -0.1083%.
COc1ccccc1C(O)c1ccccn1 (stereo not given) read -11.47%.
CCOC(=O)C1CCCN(c2nccnc2C#N)C1 (stereo not given) read -0.4555%.

Once more, the final 3:

{"structure": "CCCC(=O)NCCN=c1ncnc2n(C)[nH]c(Br)c1-2", "Percent Effect": -0.1083}
{"structure": "COc1ccccc1C(O)c1ccccn1", "stereo": "stereo not given", "Percent Effect": -11.47}
{"structure": "CCOC(=O)C1CCCN(c2nccnc2C#N)C1", "stereo": "stereo not given", "Percent Effect": -0.4555}

Data taken from ChEMBL document CHEMBL3988442, “University of Dundee, Small-Polar-MMV Screening Library” (2021).